Some entries share one result that the patent states for a list of compounds.
Assay: dissolving in water
Format: physicochemical
Conditions: after being first dissolved in DMSO

SMILES	concentration at which precipitated in water
C[C@@H]1CC[C@@]2(NC1)O[C@H]1C[C@H]3[C@@H]4CC=C5C[C@@H](O[C@@H]6O[C@H](CO)[C@@H](O[C@@H]7O[C@@H](C)[C@H](O)[C@@H](O)[C@H]7O)[C@H](O)[C@H]6O[C@@H]6O[C@@H](C)[C@H](O)[C@@H](O)[C@H]6O)CC[C@]5(C)[C@H]4CC[C@]3(C)[C@H]1[C@@H]2C [solamargine]	more than 5 mg/ml
C[C@@H]1CC[C@@]2(NC1)O[C@H]1C[C@H]3[C@@H]4CC=C5C[C@@H](O[C@@H]6O[C@H](CO)[C@H](O)[C@H](O[C@@H]7O[C@H](CO)[C@@H](O)[C@H](O)[C@H]7O)[C@H]6O[C@@H]6O[C@@H](C)[C@H](O)[C@@H](O)[C@H]6O)CC[C@]5(C)[C@H]4CC[C@]3(C)[C@H]1[C@@H]2C [solasonine]	more than 5 mg/ml

From US7078063B2, “Water soluble extract from plant of Solanum genus and the preparation process thereof, and pharmaceutical composition containing the water soluble extract” (G & E Herbal Biotechnology Co., LTD., priority 2003, dated 2006)
